According to PubChem BioAssay AID2417 (National Center for Advancing Translational Sciences (NCATS), 2010):
Hit rate of the full screen: of about 140,000 compounds, about 4,300 (3.1%) were called active. The inconclusive results got no clear call from the source; some entries with a clear call stand among them for comparison.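 Rule for the calls: active = readout at or below -70, meaning at least 70% loss of cells showing the perinucleolar compartment, a nuclear body marking cancer cells; inconclusive = readout between -30 and a set limit; inactive = the rest.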

assay: High Content Assay for Compounds that inhibit the Assembly of the Perinucleolar Compartment; settings: PC3M PTB-GFP, PNC prevalence imaging, 16 h; at 10 µM; hits give low values;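 note: plate controls were DMSO wells for no effect and camptothecin positive control wells for full effect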
In short: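 PC3M cells stably expressing PTB-GFP, 750–1000 cells/well, treated 16 h at 37 °C with compound (23 nl of library stock), in duplicate. After paraformaldehyde fixation and Hoechst stain, imaged at 20x; PNC prevalence scored by image analysis.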

| SMILES | activity change (PNC), negative = inhibition |
| --- | --- |
| O=[N+]([O-])c1ccc(C(=Nc2cccc3ccccc23)N2CCOCC2)cc1 | inconclusive: -33.4% |
| O=C(Oc1cccc(N2C(=O)CCC2=O)c1)C1CC(=O)N(c2ccc(Br)cc2)C1 (stereo not drawn) | inconclusive: -76.4% |
| O=C(NC1CCCCC1)C(c1cccnc1)N(C(=O)c1csnn1)C1CCCC1 (stereo not drawn) | active: -100% |
| CCOC(=O)c1c(C)[nH]c(C)c1-c1ccccc1OC | inactive: 54% |
| N#Cc1cc2ccccc2nc1SCc1ccccn1 | inactive: -5% |
| O=C(CCCN1C(=O)CCC1=O)Nc1ccccc1F | inconclusive: -38.1% |
| CCCCCCn1c(SCC(=O)c2c(N)n(C)c(=O)n(C)c2=O)nc2ccccc21 | inconclusive: -35% |
| CCOC(=O)c1ccc(N2C(=O)C=CC2=O)cc1 | inconclusive: -36.7% |
| CCOC(=O)C(NC(=O)c1ccccc1)(OCC1(CC)COC1)C(F)(F)F (stereo not drawn) | inconclusive: -42.1% |
| O=C(O)CSc1nnc(-c2ccccc2O)n1Cc1ccccc1 | inconclusive: -32.1% |
| CCOCC(=O)NCc1ccc2c(c1)OCO2 | inactive: -2.3% |
| CCn1c(SCC(=O)c2ccccc2)nnc1-c1ccoc1C | inactive: -21.4% |
| Cc1cccc(N2CCN(S(=O)(=O)c3ccc4[nH]c(=O)c(=O)[nH]c4c3)CC2C)c1 (stereo not drawn) | inconclusive: -37.5% |
| Cc1ccc(OCC(=O)Nc2ccc(F)cc2)cc1 | inconclusive: -35.9% |
| O=C(N/N=C/c1cn(-c2cccs2)nc1-c1ccccc1)c1ccccc1O | inconclusive: -59% |
| Cc1cccc(NC(=S)N/N=C2\CC(C)(C)Oc3ccc(O)cc32)c1 | inconclusive: -42.1% |
| CCCCn1c(=O)c2c(c3ccccc31)OCC(=O)N2 | inactive: 18.8% |
| O=CN1CCN(C(=O)c2ccc([N+](=O)[O-])cc2)CC1 | inactive: 18.4% |
| CSC1=N/C(=C\c2ccccc2F)C(=O)S1 | inactive: 21.3% |
| Cc1[nH][nH]c(=O)c1C(c1c(C)[nH][nH]c1=O)c1cn(Cc2ccc(F)cc2)c2ccccc12 | inactive: -29.4% |
| Cc1ccc(NC(=O)CSCC(N)=O)cc1C | inactive: 27.5% |
| COc1ccc(-c2cccc(C(=O)NCC(=O)O)c2)cc1 | inconclusive: -70.6% |
| N#Cc1cccc(NC(=O)c2ccccc2C(=O)O)c1 | inconclusive: -45.2% |
| O=C(CSc1nnc(SCc2ccccc2Cl)s1)N/N=C/c1c[nH]c2ccccc12 | inconclusive: -64.9% |

| SMILES | activity change (PNC), negative = inhibition |
| --- | --- |
| C=CCOC(=O)C1=C(C)NC(SCC)=C(C#N)C1c1ccc(Cl)cc1 (stereo not drawn) | inactive: 46.1% |
| O=C(Nc1ccc(Br)c2cccnc12)c1ccc(Cn2cc([N+](=O)[O-])cn2)o1 | inconclusive: -42.6% |
| CN=C(NC1CCCCC1)c1ccc(Cl)cc1 | active: -103% |
| CC(=O)NC(CCS(C)(=O)=O)C(=O)Nc1ccc2c(c1)OCO2 (stereo not drawn) | inactive: 11% |
| O=C(Cc1ccc(Br)cc1)OCC(=O)N1CCc2ccccc2C1 | inactive: 75.6% |
| CCOC(=O)c1cc(CC)sc1NC(=O)CCC(=O)O | inconclusive: -54.8% |
| COc1ccc2cc(C(c3nnnn3C(C)(C)C)N3CCc4ccccc4C3)c(=O)[nH]c2c1 (stereo not drawn) | inconclusive: -54.4% |
| CCOC(=O)C1CCCN(c2c(N3CCN(C4CCCCC4)CC3)c(=O)c2=O)C1 (stereo not drawn) | inconclusive: -55.7% |
| CC(=O)N(Cc1c(C)nn(-c2ccccc2)c1Cl)c1ccc(Cl)cc1 | inconclusive: -64.1% |
| CC(C)Cn1c(/C=N/Nc2nc3ccccc3[nH]2)nc2ccccc21 | inactive: 39.9% |
| CN(CC(=O)N1CC(=O)N(CCc2ccccc2)C(=O)C1)S(=O)(=O)c1cccc2nsnc12 | inactive: 27.6% |
| CC1SC(c2ccc(Cl)cc2)NC1=O (stereo not drawn) | inconclusive: -34.3% |
| Cc1c(N/C(=N/S(=O)(=O)c2ccccc2)c2ccc(Cl)cc2)c(=O)n(-c2ccccc2)n1C | inconclusive: -40.3% |
| CCOC(=O)c1ccc(NC(=O)CC2Sc3ncnn3C2=O)cc1 (stereo not drawn) | inconclusive: -30.1% |
| CCC(C)NC(=O)Cn1cnc2sc(C)cc2c1=O (stereo not drawn) | inactive: 76.3% |
| COCCNC(=O)CCc1nc(-c2ccccc2)no1 | inactive: 29.7% |
| CCN(CC)CCNS(=O)(=O)c1ccc(Cl)cc1 | inconclusive: -34.8% |
| OC(COc1ccc2cc(Br)ccc2c1)CN1CCN(c2ccccn2)CC1 (stereo not drawn) | inconclusive: -60.8% |
| CC1CCCCN1C(=O)c1cc2nc(-c3ccccc3)cc(-c3ccccc3)n2n1 (stereo not drawn) | inactive: 7.84% |
| O=C1CSC(c2cccnc2)N1C1CCCCC1 (stereo not drawn) | inconclusive: -47.6% |
| CCOc1cc(/C=C(\C#N)C(=O)NCC2CCCO2)ccc1O (stereo not drawn) | inconclusive: -77.3% |
| COc1ccc2nc3oc(C(=O)NC4CCN(Cc5ccccc5)CC4)cc3cc2c1 | inconclusive: -34.2% |
| CCOC(=O)C1=C(c2ccccc2)NC(SC)=C(C#N)C1c1ccco1 (stereo not drawn) | inconclusive: -40.1% |
| O=C(CCc1ccccc1)NNC(=S)NC(=O)c1ccccc1 | inactive: 79.3% |

| SMILES | activity change (PNC), negative = inhibition |
| --- | --- |
| CCC(NC(=O)c1ccccc1O)c1ccccc1 (stereo not drawn) | active: -109% |
| O=C(Cn1cnc2c(nnn2-c2ccccc2)c1=O)N1CCOCC1 | inconclusive: -66% |
| CC(OC(=O)CCCCCN=C1NS(=O)(=O)c2ccccc21)C(=O)Nc1cc(Cl)cc(Cl)c1 (stereo not drawn) | inconclusive: -32.8% |
| Cc1sc2ncnc(NCC(c3ccco3)N(C)C)c2c1C (stereo not drawn) | inconclusive: -47.2% |
| Nn1c(SCC(=O)NC2CCCc3ccccc32)nnc1-c1cccs1 (stereo not drawn) | inconclusive: -65.4% |
| Cc1cc(C)nc(N2CCCC(C(=O)NCc3ccccc3)C2)n1 (stereo not drawn) | inconclusive: -49% |
| CCOc1ccc(-c2nc(N)ncc2-c2ccc(OC)cc2)c(O)c1 | inconclusive: -71% |
| CN(C)C(=O)c1ccc(COc2ccccc2Br)o1 | inconclusive: -34.8% |
| O=C(/C=C/c1ccc(F)cc1)c1ccccc1Br | inactive: 7.1% |
| Cc1cc(C)c(C)c(OCC(=O)NCC2CCCO2)c1 (stereo not drawn) | active: -90.4% |
| Cc1ccc2nc(SCC(=O)O)nc(C)c2c1 | inconclusive: -40.8% |
| Cc1cc(-c2csc(NC(=O)c3ccc(C#N)cc3)n2)c(C)n1Cc1ccccc1 | inconclusive: -53.4% |
| CCN=c1scc(C)n1/N=C/c1ccsc1 | inactive: -14.1% |
| O=C1OC(/C=C/c2ccc(Cl)cc2Cl)=NC/1=C\c1cccs1 | inactive: -27% |
| OC1(c2ccccc2F)CCN(Cc2nnnn2CCc2ccccc2)CC1 | inactive: 18.8% |
| CCN1C(=O)C(O)(CC(=O)c2ccc(-n3cccc3)cc2)c2ccccc21 (stereo not drawn) | active: -100% |
| COc1ccc(Br)cc1CNC(=O)C1CCCN(S(C)(=O)=O)C1 (stereo not drawn) | inconclusive: -66.9% |
| O=C(NC(=O)c1ccccc1)OCC(F)(F)F | inconclusive: -61% |
| COCCSc1ccccc1C(=O)Nc1ccncc1 | inconclusive: -61.3% |
| CN(C)S(=O)(=O)N(CC(=O)Nc1cccc(F)c1)c1ccccc1 | inconclusive: -37.2% |
| O=C(NC1CCCC1)c1sc(=S)n2c1[nH]c(=O)c1ccccc12 | inactive: -20% |
| CCOC(=O)CSc1nc2c([nH]c3ccccc32)c(=O)n1C | inactive: -14.4% |
| COc1cccc2cc(C(=O)N3CCN(c4ccccc4F)CC3)c(=O)oc12 | inconclusive: -75.2% |
| Nc1cc(=O)nc(SCC(=O)Nc2cccc3ccccc23)n1CCc1ccccc1 | inactive: 39.5% |

Copied from the entries so far, four compounds:

| SMILES | activity change (PNC), negative = inhibition |
| --- | --- |
| CC(OC(=O)CCCCCN=C1NS(=O)(=O)c2ccccc21)C(=O)Nc1cc(Cl)cc(Cl)c1 (stereo not drawn) | inconclusive: -32.8% |
| Cc1sc2ncnc(NCC(c3ccco3)N(C)C)c2c1C (stereo not drawn) | inconclusive: -47.2% |
| Nn1c(SCC(=O)NC2CCCc3ccccc32)nnc1-c1cccs1 (stereo not drawn) | inconclusive: -65.4% |
| Cc1cc(C)nc(N2CCCC(C(=O)NCc3ccccc3)C2)n1 (stereo not drawn) | inconclusive: -49% |

The listing continues.

| SMILES | activity change (PNC), negative = inhibition |
| --- | --- |
| Oc1ccc(CNc2ccccc2F)c2cccnc12 | inactive: -26.9% |
| CCC(=O)Nc1nc2ccccc2n1CCN(C)C | inconclusive: -48.2% |
| CCC(C)n1c(C)nc2c(c1=O)c1nc3ccccc3nc1n2-c1ccc2c(c1)OCCO2 (stereo not drawn) | inactive: -2.74% |
| O=[N+]([O-])c1ccc(OC/C=C2\Oc3ccc([N+](=O)[O-])cc3C2N2CCOCC2)cc1 (stereo not drawn) | inconclusive: -39.6% |
| CC(C)Cc1ccc(C(C)C(=O)OCC(=O)c2c[nH]c3ccccc23)cc1 (stereo not drawn) | inconclusive: -30.3% |
| CCCCC(CC)C(=O)Nc1ccccc1C(=O)NC(C)C (stereo not drawn) | inconclusive: -66.4% |
| COc1ccc2cc(C(=O)OC(C)C)sc(=O)c2c1OC | inactive: 4.09% |
| CC1=CN2C(=N)/C(=C\c3cn(CCCOc4ccccc4)c4ccccc34)C(=O)N=C2S1 | inconclusive: -30.7% |
| CCN(Cc1cc2cccc(C)c2[nH]c1=O)C(=O)c1ccccc1OC | inconclusive: -36.8% |
| CCCn1c(SCC(=O)N2c3ccc(F)cc3CCC2C)nnc1-c1ccccn1 (stereo not drawn) | active: -119% |
| COc1cccc(OC)c1C(=O)NC(=S)Nc1ccc2c(c1)Cc1ccccc1-2 | inconclusive: -73.3% |
| O=C(NCc1ccco1)C1(c2ccc(Cl)cc2)CCCC1 | inconclusive: -35% |
| COC(=O)c1cc(COc2ccc3oc(C)c(C(=O)OC)c3c2)c(C)o1 | inconclusive: -64.2% |
| CNC(=O)c1ccc(OC2CSC2)cc1 | inactive: -25% |
| Cc1c(NC(=O)CCCCCN2C(=O)C3C4C=CC(C4)C3C2=O)c(=O)n(-c2ccccc2)n1C (stereo not drawn) | inactive: -5.42% |
| CCCn1c(SCC(=O)c2cc(OC)ccc2OC)nnc1C(C)C | inconclusive: -48.2% |
| CC1=C(C(=O)OCCNC(=O)c2ccccc2O)C(c2ccccc2[N+](=O)[O-])C(C(=O)OCC2CCCO2)=C(C)N1 (stereo not drawn) | inconclusive: -34.3% |
| O=S(=O)(Cc1ccccc1Cl)NCCOc1ccccc1 | inconclusive: -52% |
| Cn1c(=O)oc2cc(S(=O)(=O)Nc3cccc(C(=O)O)c3)ccc21 | inactive: -20.9% |
| CC(C)(C)OC(=O)N/N=C/c1c[nH]c2ccccc12 | active: -109% |
| CCOC(=O)c1c(-c2cccs2)csc1NC(=O)CN1CC(C)OC(C)C1 (stereo not drawn) | inactive: 22.1% |

Random excerpt: 2 records from the list, in no set order.

| SMILES | activity change (PNC), negative = inhibition |
| --- | --- |
| CCCn1c(SCC(=O)c2cc(OC)ccc2OC)nnc1C(C)C | inconclusive: -48.2% |
| CCN(Cc1cc2cccc(C)c2[nH]c1=O)C(=O)c1ccccc1OC | inconclusive: -36.8% |
